According to patent USRE39192E1, “Supplemented and unsupplemented tissue sealants, methods of their production and use” (American National Red Cross, priority 1990, dated 2006):

Test: Release of 5-FU from FG clots

For O=c1[nH]cc(F)c(=O)[nH]1 [5-FU, 5-fluorouracil], the “sustained delivery longer than with the drug in aqueous form” value was “at least 10 times”, the “time point of peak levels” value (all cases) was 5 h and the “increase of total duration of delivery, solid vs liquid form” value (greater amounts of solid 5-FU) was “tripling”. The “increase in the duration of delivery of a given concentration” value (greater amounts of solid 5-FU vs liquid form) was 10 fold.
